Assay results: PMC6407830

Sequences of proteins named here, by UniProt entry; tags and fusion partners are left off. A change or cut given only in a name is not applied to a line headed by its entry. Residues count along the entry.
UniProt Q9EQY0, residues 21-977: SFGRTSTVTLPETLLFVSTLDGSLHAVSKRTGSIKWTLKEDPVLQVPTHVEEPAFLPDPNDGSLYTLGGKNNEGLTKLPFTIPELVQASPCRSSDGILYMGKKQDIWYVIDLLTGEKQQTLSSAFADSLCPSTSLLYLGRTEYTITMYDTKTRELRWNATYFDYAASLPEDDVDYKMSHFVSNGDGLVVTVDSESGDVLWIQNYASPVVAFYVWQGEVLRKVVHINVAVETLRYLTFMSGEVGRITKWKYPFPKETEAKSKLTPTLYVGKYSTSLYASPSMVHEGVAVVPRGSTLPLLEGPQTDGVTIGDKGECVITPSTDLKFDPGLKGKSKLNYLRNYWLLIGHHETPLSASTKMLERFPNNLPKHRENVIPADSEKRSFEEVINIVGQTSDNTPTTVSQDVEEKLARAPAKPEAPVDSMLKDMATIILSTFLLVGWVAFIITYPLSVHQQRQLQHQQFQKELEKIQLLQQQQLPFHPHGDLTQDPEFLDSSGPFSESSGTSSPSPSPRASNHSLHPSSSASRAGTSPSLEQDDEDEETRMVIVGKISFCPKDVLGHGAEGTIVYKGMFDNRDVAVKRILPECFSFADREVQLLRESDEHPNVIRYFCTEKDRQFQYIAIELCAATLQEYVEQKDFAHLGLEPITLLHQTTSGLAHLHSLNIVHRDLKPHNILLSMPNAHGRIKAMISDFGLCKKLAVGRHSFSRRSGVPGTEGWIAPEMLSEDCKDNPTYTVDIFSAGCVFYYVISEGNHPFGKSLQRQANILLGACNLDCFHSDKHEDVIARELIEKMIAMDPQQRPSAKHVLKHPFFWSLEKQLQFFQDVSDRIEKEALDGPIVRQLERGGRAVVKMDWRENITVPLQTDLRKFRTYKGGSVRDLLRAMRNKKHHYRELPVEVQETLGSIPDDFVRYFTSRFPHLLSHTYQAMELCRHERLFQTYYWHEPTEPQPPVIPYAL
UniProt P63330: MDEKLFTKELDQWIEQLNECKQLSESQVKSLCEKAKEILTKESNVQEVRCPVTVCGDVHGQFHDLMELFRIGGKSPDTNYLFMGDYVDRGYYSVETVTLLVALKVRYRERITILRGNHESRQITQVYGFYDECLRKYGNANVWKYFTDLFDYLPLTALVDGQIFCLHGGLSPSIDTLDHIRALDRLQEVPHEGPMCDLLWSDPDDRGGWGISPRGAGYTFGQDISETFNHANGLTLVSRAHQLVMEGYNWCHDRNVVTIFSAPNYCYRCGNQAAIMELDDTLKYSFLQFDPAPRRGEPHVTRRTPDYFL

Legend:
[1] = molecular target: IRE-1, endogenous in mouse myocardium (mouse (endogenous in myocardium)) (UniProt Q9EQY0); assay: co-IP; endogenous proteins in Pak2-Flox mouse hearts after TAC
[2] = molecular target: IRE-1, endogenous in mouse myocardium (mouse (endogenous in myocardium)) (UniProt Q9EQY0); assay: co-IP; endogenous proteins in Pak2-CKO mouse myocardium after TAC

binding [2]: binds
Substance: PP2Ac, endogenous in mouse myocardium (from UniProt P63330)
binding [1]: no binding (only in Pak2-Flox hearts after TAC)

No constants are given. Whether binding was seen depends on the method and setting. In cells and extracts the contact can be indirect. For some assays here: A result given as binding can be weak or reduced; the word gives no strength.
